Results taken from PMC10785664 (ACS Omega, 2023).
≈ marks a conversion by molar mass, not a printed value. Like-named read-outs stand apart in the source and are kept apart here.

What was measured:
A549 cells [1] = assay: MTT cell viability, antiproliferative action on A549 cells; type: cell-based; details: Homo sapiens, A549, 72 h
Summary of the method: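 A549 cells in DMEM with 10% FBS and 1% penicillin-streptomycin (37 °C, 5% CO₂) were grown to 90% confluence, seeded at 2.5 × 10⁴ cells/mL in 96-well plates and left 24 h. Dosing solutions at 25, 50 and 100 µg/mL in PBS/0.2% DMSO were added in triplicate, followed by 72 h incubation. MTT (5 mg/mL) was added for 4 h, then acid-isopropanol overnight. A570/620 was read; viability was blank-corrected relative to untreated controls.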

A549 cells [2] = details: PTX on A549 cells; cited from earlier work

## CC(=O)O[C@H]1C(=O)[C@@]2(C)[C@H]([C@H](OC(=O)c3ccccc3)[C@]3(O)C[C@H](OC(=O)[C@H](O)[C@@H](NC(=O)c4ccccc4)c4ccccc4)C(C)=C1C3(C)C)[C@]1(OC(C)=O)CO[C@@H]1C[C@@H]2O [PTX, paclitaxel]
A549 cells [1]
  IC50: 0.96 µg/mL (≈ 1.12 µM)
A549 cells [2]
  IC50: 0.9 µg/mL (≈ 1.05 µM)
